According to patent publication US20110135647A1:
No constants are given. Whether binding was seen depends on the method and setting. Binding seen in cells or lysates may run through a third protein. Some binding calls cover weakened binding; strength is not graded here. For part of these data: Sequences can lack the tags named with a protein.

Protein sequences, listed by entry. Tags and fused reporters are not part of them. Lines headed by an entry give the natural chain unless they say otherwise; changes in a name come on top.
UniProt Q9NZJ0: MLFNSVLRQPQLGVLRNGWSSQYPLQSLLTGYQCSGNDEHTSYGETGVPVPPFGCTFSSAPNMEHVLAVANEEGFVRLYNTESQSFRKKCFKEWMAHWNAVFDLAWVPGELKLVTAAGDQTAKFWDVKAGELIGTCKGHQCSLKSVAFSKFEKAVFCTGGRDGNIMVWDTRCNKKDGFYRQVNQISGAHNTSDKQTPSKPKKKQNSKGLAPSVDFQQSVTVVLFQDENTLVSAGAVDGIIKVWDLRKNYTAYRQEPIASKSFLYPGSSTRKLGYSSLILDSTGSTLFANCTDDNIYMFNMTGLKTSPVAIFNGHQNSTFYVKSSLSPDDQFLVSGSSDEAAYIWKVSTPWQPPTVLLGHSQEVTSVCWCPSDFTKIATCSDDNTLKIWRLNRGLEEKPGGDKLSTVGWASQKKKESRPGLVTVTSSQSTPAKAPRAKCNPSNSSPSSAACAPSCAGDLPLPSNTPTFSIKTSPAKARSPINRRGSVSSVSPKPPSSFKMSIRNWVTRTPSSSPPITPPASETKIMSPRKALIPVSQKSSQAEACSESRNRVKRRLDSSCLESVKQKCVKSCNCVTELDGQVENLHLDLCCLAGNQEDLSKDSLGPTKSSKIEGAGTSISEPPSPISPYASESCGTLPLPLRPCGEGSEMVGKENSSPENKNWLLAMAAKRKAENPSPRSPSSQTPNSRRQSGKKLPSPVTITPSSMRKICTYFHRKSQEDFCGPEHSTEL
UniProt Q5TH69: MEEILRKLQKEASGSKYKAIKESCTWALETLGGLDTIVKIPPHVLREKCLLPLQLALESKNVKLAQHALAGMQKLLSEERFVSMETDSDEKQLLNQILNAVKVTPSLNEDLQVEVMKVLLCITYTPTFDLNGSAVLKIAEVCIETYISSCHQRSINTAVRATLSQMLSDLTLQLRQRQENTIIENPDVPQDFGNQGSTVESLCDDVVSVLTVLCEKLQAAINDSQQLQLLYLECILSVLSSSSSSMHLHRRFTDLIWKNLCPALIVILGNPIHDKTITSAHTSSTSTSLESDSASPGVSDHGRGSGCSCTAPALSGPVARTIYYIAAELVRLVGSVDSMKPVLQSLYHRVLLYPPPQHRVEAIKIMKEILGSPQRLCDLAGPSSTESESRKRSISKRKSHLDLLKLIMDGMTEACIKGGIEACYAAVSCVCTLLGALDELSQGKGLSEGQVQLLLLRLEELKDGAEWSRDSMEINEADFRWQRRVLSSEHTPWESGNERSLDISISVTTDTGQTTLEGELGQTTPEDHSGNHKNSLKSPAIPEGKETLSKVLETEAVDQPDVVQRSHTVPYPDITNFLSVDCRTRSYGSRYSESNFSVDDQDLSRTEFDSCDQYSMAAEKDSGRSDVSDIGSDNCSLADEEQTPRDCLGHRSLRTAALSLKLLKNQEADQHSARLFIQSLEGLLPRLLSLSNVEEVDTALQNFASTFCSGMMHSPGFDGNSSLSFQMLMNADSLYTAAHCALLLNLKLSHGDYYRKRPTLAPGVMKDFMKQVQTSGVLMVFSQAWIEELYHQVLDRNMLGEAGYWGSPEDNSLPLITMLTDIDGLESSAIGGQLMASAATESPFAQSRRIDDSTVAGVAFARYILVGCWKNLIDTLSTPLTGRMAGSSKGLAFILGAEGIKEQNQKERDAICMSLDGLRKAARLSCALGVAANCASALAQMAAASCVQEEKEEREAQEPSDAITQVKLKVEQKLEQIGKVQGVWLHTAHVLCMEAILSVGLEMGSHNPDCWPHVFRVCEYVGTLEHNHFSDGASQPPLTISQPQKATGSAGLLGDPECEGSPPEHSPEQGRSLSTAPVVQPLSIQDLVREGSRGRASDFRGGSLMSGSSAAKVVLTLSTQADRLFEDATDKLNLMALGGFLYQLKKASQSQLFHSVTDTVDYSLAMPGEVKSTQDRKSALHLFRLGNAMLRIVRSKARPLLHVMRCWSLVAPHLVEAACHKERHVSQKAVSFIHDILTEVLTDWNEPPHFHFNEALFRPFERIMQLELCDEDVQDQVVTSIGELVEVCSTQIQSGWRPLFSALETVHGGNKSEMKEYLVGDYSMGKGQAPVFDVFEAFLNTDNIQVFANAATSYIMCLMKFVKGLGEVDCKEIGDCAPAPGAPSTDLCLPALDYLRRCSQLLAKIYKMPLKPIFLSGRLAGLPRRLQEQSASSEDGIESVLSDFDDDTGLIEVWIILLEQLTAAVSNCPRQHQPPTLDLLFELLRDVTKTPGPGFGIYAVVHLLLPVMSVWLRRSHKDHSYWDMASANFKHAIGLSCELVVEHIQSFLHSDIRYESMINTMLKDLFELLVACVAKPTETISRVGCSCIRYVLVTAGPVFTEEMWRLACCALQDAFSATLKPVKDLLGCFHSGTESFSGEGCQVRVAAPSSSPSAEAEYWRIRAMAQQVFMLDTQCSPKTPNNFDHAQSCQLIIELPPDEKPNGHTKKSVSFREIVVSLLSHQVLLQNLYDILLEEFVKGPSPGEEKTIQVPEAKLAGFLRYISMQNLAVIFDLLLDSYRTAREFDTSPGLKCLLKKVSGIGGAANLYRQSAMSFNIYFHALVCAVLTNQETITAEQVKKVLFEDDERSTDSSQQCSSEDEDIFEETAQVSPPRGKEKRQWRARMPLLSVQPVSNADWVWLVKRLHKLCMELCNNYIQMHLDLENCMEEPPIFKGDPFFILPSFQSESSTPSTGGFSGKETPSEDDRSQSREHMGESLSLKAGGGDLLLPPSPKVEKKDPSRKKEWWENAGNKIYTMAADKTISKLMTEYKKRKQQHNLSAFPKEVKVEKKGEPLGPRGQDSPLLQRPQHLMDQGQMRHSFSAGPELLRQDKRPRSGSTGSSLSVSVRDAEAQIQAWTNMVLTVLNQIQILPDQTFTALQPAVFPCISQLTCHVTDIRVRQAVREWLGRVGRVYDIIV
UniProt Q96GD4: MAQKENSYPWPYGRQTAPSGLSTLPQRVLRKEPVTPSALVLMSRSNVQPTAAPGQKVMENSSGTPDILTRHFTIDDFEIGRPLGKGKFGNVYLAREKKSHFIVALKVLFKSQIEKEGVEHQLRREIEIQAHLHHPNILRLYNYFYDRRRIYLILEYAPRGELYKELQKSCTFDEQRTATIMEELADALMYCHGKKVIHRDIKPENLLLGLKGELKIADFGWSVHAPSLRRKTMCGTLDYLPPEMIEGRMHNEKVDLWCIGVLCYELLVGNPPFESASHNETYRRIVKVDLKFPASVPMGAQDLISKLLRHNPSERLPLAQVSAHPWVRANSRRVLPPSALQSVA
UniProt P62136: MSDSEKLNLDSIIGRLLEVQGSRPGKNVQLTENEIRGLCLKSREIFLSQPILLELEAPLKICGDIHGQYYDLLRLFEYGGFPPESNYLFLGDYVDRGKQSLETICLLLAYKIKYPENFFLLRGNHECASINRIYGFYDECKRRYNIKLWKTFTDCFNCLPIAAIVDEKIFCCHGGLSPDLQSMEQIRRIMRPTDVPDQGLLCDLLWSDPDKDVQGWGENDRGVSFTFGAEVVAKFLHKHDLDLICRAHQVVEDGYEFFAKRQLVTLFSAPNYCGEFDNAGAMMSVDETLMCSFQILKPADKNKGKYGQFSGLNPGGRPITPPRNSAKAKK
UniProt O35129: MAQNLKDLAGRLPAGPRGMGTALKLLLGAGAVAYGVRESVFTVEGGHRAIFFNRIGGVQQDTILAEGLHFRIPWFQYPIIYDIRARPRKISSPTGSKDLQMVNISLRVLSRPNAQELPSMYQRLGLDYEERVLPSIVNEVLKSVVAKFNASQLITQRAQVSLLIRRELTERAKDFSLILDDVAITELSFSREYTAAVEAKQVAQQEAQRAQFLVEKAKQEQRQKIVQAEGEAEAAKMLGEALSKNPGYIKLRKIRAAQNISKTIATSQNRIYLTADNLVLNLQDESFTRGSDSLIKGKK

Experiments:
[1] = target: HA-tagged PHB2/REA (PHB2/REA-HA; pCAGGSnHC-PHB2/REA) (human); assay: conclusion from the co-immunoprecipitations in COS-7 cells
[2] = target: HA-tagged PHB2/REA (PHB2/REA-HA; pCAGGSnHC-PHB2/REA) (human); assay: co-immunoprecipitation from co-transfected COS-7 cells, anti-FLAG IP, anti-HA blot
[3] = target: HA-tagged PHB2/REA (PHB2/REA-HA; pCAGGSnHC-PHB2/REA) (human); assay: co-immunoprecipitation from co-transfected COS-7 cells, both directions
[4] = target: HA-tagged F3374 (HA-F3374; pCAGGSn-F3374-HA) (human) (UniProt Q9NZJ0); assay: co-immunoprecipitation from co-transfected HEK293T cells, anti-Flag IP, anti-HA blot
[5] = target: HA-tagged F3374 (HA-F3374; pCAGGSn-F3374-HA) (human) (UniProt Q9NZJ0); assay: co-immunoprecipitation from co-transfected HEK293T cells, anti-Flag or normal mouse IgG IP, anti-HA blot
[6] = target: HA-tagged F3374 (HA-F3374; pCAGGSn-F3374-HA) (human) (UniProt Q9NZJ0); assay: co-immunoprecipitation
[7] = target: T1, HA-tagged PBK/TOPK (HA-PBK/TOPK), wild type (human) (UniProt Q96KB5); assay: GST pull-down and anti-HA immunoprecipitation from co-transfected COS-7 cells
T1 sequence: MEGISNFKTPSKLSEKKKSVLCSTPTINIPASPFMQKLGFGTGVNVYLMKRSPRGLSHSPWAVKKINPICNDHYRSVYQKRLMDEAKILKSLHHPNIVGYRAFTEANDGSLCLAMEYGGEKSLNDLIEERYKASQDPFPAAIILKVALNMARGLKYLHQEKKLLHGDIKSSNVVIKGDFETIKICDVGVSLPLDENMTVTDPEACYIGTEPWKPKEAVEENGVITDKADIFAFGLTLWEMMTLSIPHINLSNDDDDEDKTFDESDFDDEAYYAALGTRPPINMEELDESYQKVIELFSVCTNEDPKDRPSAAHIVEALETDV

[8] = target: T1, HA-tagged PBK/TOPK (HA-PBK/TOPK), wild type (human); assay: GST pull-down from co-transfected COS-7 cells
[9] = target: FLAG-tagged A7322 (A7322-FLAG; pCAGGSn3FC-A7322) (human) (UniProt Q5TH69); assay: co-immunoprecipitation from co-transfected COS-7 cells, anti-HA IP, anti-FLAG blot

FLAG-tagged A7322 (A7322-FLAG; pCAGGSn3FC-A7322) (from UniProt Q5TH69 1-2177)
binding [1]: binds
binding [2]: binds
binding [3]: binds

Flag-tagged AURKB (Flag-AURKB; pCAGGSn-AURKB-3F) (from UniProt Q96GD4 1-344) (enzyme)
binding [4]: binds
binding [5]: binds
binding [6]: binds

GST-tagged PP1α (GST-PP1α) (from UniProt P62136 1-330) (enzyme)
binding [7]: binds
binding [8]: binds

HA-tagged PHB2/REA (PHB2/REA-HA; pCAGGSnHC-PHB2/REA) (from UniProt O35129 1-299)
binding [9]: binds
